Measurements: article PMC4912631, “Structure of the exportin Xpo4 in complex with RanGTP and the hypusine-containing translation factor eIF5A” (Nature Communications, 2016)

Molecular target: RanQ69L (aa 5–180), GTP-bound, untagged ( (mammalian), UniProt P62826 5-180, Q69L)
Test: SEC; complexes of Xpo4 variants, RanGTP and a 1.3-molar excess of hypusine-containing eIF5A, retrieved on anti-ZZ beads via tagged RanGTP, eluted by bdSENP1, then Superdex 200 16/60 in 15 mM Tris/HCl pH 7.7, 18 mM NaCl, 2 mM Mg(OAc)2, 2 mM DTT; peak fractions on SDS-PAGE
Conditions: both partners purified

binding result: binds
B1: Xpo4 ΔLoopN&C (natural protein)
chain: MMAAALGPPEVIAQLENAAKVLMAPPSMVSNEQRQHAEHIFLSFRKSKSPFAVCRHILETSKVDYVLFQAATAIMEAVVREWVLLEKGSIESLRTFLLTYVLQRPNLQKYVREQILLAVAVIVKRGSLDKSIDCKSIFHEVSQLISSGNPTVQTLACSILTALLSEFSSSSKTSNIGLSMEFHGNCKRVFQEEDLRQIFMLTVGVLQEFSRRENLSAQMSSVFQRYLALANQVLSWNFLPPTESWREALLDSRVMELFFTVHRKIREDSDMAQDSLQCLAQLASLHGPIFPDEGSQVDYLAHFIEGLLNTINGIEIEDSEAVGISSIISNLITVFPRNVLTAIPSELFSSFVNCLTHLTCSFGRSAALEEVLDKDDMVYMEAYDKLLESWLTLVRDDKHFHKGFFTQHAVQVFNSYIQCHLAAPDGTRNLTANGVASREEEEISELQEDDRDQFSDQLASVGMLGRIAAEHCMPLLTSLLEERVTRLHGQLQRHQQQFLASPGSSTIDNKMLDDLYEDIHWLILVTGYLLADDTQGETPLIPPEIMEYSIKHSSEVDINTTLQILGSPGEKASSIPGYSRTDSVIRLLSAVLRVSEVESRAIRADLTHLLSPQMGKDIVWFLKRWAKTYLLVDEKLYDQISLPLSTAFGADTEGSQWIIGYLLQKVISNLSVWSSEQDLANDTVQLLVTLVERRERANLVIQCENWWNLAKQFASRSPPLNFLSSPVQRTLMKALVLGGFAHMDTETKQQYWTEVLQPLQQRFLRVINQENFQQMCQQEEVKQEITATLEALCGIAEATQIDNVAILFNFLMDFLNNCIGLMEVYKNTPETVNLIIEVFVEVAHKQICYLGESKAMHLYEACLTLLQVYSKNNLGRQRIDVTAEEEQYQDLLLIMELLTNLLSKEFIDFSVSAADVVLYGVNLILPLMSQDLLKFPTLCNQYYKLITFICEIFPEKIPQLPEDLFKSLMYSLELGMTSMSSEVCQLCLEALTPLAEQCAKAQETDSPLFLATRHFLKLVFDMLVLQKHNTEMTTAAGEAFYTLVCLHQAEYSELVETLLSSQQDPVIYQRLADAFNKLTASSTPPALDRKQKMAFLKSLEEFMANVGGLLCVK
notes: Xpo4 (exportin 4), mammalian, with loops 241-260 and 931-948 deleted; 1,113 residues printed; Crystallised form; 1,052 of 1,113 residues are modelled in PDB 5DLQ; also called ΔLoopN&C Xpo4 variant; Xpo4 loop deletion mutant; source: E. coli Top10 F', purified (Ni(II) chelate, bdSENP1 elution, Superdex 200, Mono Q); selenomethionine form from BL21; not shown: His14, N-terminal, cleaved; bdSUMO, …
